Measurements reported in PubChem BioAssay AID1259308 (NCATS, 2017).

Purpose: 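Knock-downs that increase output of a recombinant reporter protein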 (primary screen)
Cells: human HEK293 embryonic kidney cells stably expressing firefly luciferase (HEK-CMV-Luc2-Hygro)
Reagents: single siRNA against human genes, 0.8 pmol siRNA per well
Duration: 72 h
Read-out: 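Luciferase light (ONE-Glo) measured on one replicate plate set and viability (CellTiter-Glo) on the other, scaled to a negative control siRNA, with robust z-scores and luciferase per cell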
Reading the numbers: total luciferase, z-score and total luciferase, % of control: higher = more reporter protein produced
Active means: 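An siRNA counts as active if its total luciferase robust z-score exceeds 3; genes with two or more such siRNAs out of three were retested with fresh siRNAs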
Calls: active = raised luciferase; inactive = no rise
Shown is one part, drawn at random, of about 59,000 deposited reagents. Over the whole deposit, about 1,510 (2.6%) got an active call. 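Calls use total luciferase alone and ignore viability, so some active siRNAs may act by altering cell number.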 The numbers tell different reagents against one gene apart. Further read-outs or replicates are left out here.

FCGR3A (Fc gamma receptor IIIa) #1 scored total luciferase, z-score -0.167; total luciferase, % of control 78.6; inactive.
FCGR3A (Fc gamma receptor IIIa) #2 showed total luciferase, z-score -0.308; total luciferase, % of control 75.8; inactive.
Silencing of FCGR3A (Fc gamma receptor IIIa) #3 came out at: total luciferase, z-score -1.03; total luciferase, % of control 61.4; inactive.
TLE2 (TLE family member 2, transcriptional corepressor) #1 scored total luciferase, z-score -1.25; total luciferase, % of control 57.1; inactive.
Depletion of TLE2 (TLE family member 2, transcriptional corepressor) #2 gave: total luciferase, z-score -1.17; total luciferase, % of control 58.6; inactive.
TLE2 (TLE family member 2, transcriptional corepressor) #3 scored total luciferase, z-score 0.443; total luciferase, % of control 90.7; inactive.
Against MYG1 (MYG1 exonuclease) #1, the entry reads total luciferase, z-score -0.171; total luciferase, % of control 78.5; inactive.
For MYG1 (MYG1 exonuclease) #2 the deposit lists total luciferase, z-score 0.604; total luciferase, % of control 93.9; inactive.
Knock-down of MYG1 (MYG1 exonuclease) #3 gave: total luciferase, z-score -2.26; total luciferase, % of control 36.8; inactive.
For ARGFX (arginine-fifty homeobox) #1, the values are total luciferase, z-score 1.27; total luciferase, % of control 107; inactive.
With knock-down of ARGFX (arginine-fifty homeobox) #2, the record shows total luciferase, z-score 0.623; total luciferase, % of control 94.3; inactive.
Depletion of ARGFX (arginine-fifty homeobox) #3 gave: total luciferase, z-score 0.892; total luciferase, % of control 99.6; inactive.
After knock-down of NXF2 (nuclear RNA export factor 2) #1, the record shows total luciferase, z-score -2.16; total luciferase, % of control 38.9; inactive.
After knock-down of NXF2 (nuclear RNA export factor 2) #2, the record shows total luciferase, z-score -1.24; total luciferase, % of control 57.3; inactive.
NXF2 (nuclear RNA export factor 2) #3 scored total luciferase, z-score -0.878; total luciferase, % of control 64.4; inactive.
Silencing of TWNK (twinkle mtDNA helicase) #1 came out at: total luciferase, z-score 0.177; total luciferase, % of control 85.4; inactive.
TWNK (twinkle mtDNA helicase) #2 scored total luciferase, z-score 1.17; total luciferase, % of control 105; inactive.
Against TWNK (twinkle mtDNA helicase) #3, the values are total luciferase, z-score 0.209; total luciferase, % of control 86.1; inactive.
Knock-down of CDK12 (cyclin dependent kinase 12) #1 resulted in: total luciferase, z-score -1.08; total luciferase, % of control 60.5; inactive.
For CDK12 (cyclin dependent kinase 12) #2, the values are total luciferase, z-score -2.09; total luciferase, % of control 40.2; inactive.
Silencing of CDK12 (cyclin dependent kinase 12) #3 gave: total luciferase, z-score -1.51; total luciferase, % of control 51.8; inactive.

Records above whose gene name starts with A or a:
ARGFX (arginine-fifty homeobox) #1 — total luciferase, z-score: 1.27; total luciferase, % of control: 107; outcome: inactive
ARGFX (arginine-fifty homeobox) #2 — total luciferase, z-score: 0.623; total luciferase, % of control: 94.3; outcome: inactive
ARGFX (arginine-fifty homeobox) #3 — total luciferase, z-score: 0.892; total luciferase, % of control: 99.6; outcome: inactive

The listing continues.
COL6A6 (collagen type VI alpha 6 chain) #1 gave total luciferase, z-score -0.653; total luciferase, % of control 68.9; inactive.
After knock-down of COL6A6 (collagen type VI alpha 6 chain) #2 the results were total luciferase, z-score -1.52; total luciferase, % of control 51.6; inactive.
COL6A6 (collagen type VI alpha 6 chain) #3 gave total luciferase, z-score 0.868; total luciferase, % of control 99.1; inactive.
KRTAP4-6 (keratin associated protein 4-6) #1 scored total luciferase, z-score -0.928; total luciferase, % of control 63.4; inactive.
KRTAP4-6 (keratin associated protein 4-6) #2 scored total luciferase, z-score 0.78; total luciferase, % of control 97.4; inactive.
Silencing of KRTAP4-6 (keratin associated protein 4-6) #3 came out at: total luciferase, z-score -0.0519; total luciferase, % of control 80.9; inactive.
With knock-down of MATN2 (matrilin 2) #1 the results were total luciferase, z-score 0.242; total luciferase, % of control 86.7; inactive.
For MATN2 (matrilin 2) #2, the entry reads total luciferase, z-score -0.372; total luciferase, % of control 74.5; inactive.
After knock-down of MATN2 (matrilin 2) #3 the results were total luciferase, z-score 0.631; total luciferase, % of control 94.4; inactive.
Against YWHAQ #1, the values are total luciferase, z-score 0.254; total luciferase, % of control 86.9; inactive.
YWHAQ #2 showed total luciferase, z-score -0.624; total luciferase, % of control 69.5; inactive.
YWHAQ #3 scored total luciferase, z-score 1.76; total luciferase, % of control 117; inactive.
